Source: patent US8846107B2, “In situ generation of peroxycarboxylic acids at alkaline pH, and methods of use thereof” (priority 2010, dated 2014)
Some results were stated once for a whole list of compounds, not compound by compound.

Test system: Escherichia coli ATCC 11229
Assay: Sanitizing efficacy of in situ generated peroxycarboxylic acids
Format: cell-based
Conditions: alone, at every concentration tested, pH 5.0, after 30 seconds
Experimental: A study was run to evaluate the sanitizing efficacy of mixtures of peroxycarboxylic acids generated in situ from esters under alkaline conditions. For this study the following ester based peroxycarboxylic acid forming compositions were used.
The above Peroxycarboxylic acid premixes were then tested alone at various concentrations, and mixed at various concentrations against Staphylococcus aureus ATCC 6538, and Escherichia coli ATCC 11229.
The test substances were tested against Staphylococcus aureus ATCC 6538, and Escherichia coli ATCC 11229 at 25° C.±1° C. for 30 seconds. A neutralizer screen was performed as part of the testing to verify that the neutralizer adequately neutralized the product and was not detrimental to the tested organisms.

In the case of `CCCCCCCC(=O)OO` [POOA, peroxyoctanoic acid], the “log reductions of Escherichia coli (sanitizer test)” value is reported as “less than 5 log”.
